Data taken from US20210113649A1.
Results are given in words; binding and its absence hold for the method and conditions named. Some results given as binding are weak or reduced against the parent protein; the word gives no strength.

The chains behind the UniProt entries cited, without tags or fusion partners. Residues count along the entry.
UniProt P63165, residues 1-97: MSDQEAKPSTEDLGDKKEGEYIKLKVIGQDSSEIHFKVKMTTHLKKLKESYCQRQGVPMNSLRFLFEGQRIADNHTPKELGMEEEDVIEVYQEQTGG

Columns and labels:
SUMO1 [1] = biological target: SUMO1 (UniProt P63165); experiment: fluorescence polarization (FIG. 18B)
SUMO1 [2] = biological target: SUMO1 (UniProt P63165); experiment: fluorescence polarization, TAMRA-SIM2 with increased concentrations of SUMO1
SUMO1 [3] = biological target: SUMO1 (UniProt P63165); experiment: fluorescence polarization, TAMRA-SIM2 with increased concentrations of SUMO1 (FIG. 18B)

Measured: binding

DPEEIIVLSDSD (TAMRA (5-carboxytetramethylrhodamine) label; position of attachment not stated) [TAMRA (5-carboxytetramethylrhodamine)-SIM2 peptide]
binds: all assays above
